Amino acid sequences for entries named in this document (tags omitted). A change or cut given only in a name is not applied to a line headed by its entry.
UniProt B2RWS6: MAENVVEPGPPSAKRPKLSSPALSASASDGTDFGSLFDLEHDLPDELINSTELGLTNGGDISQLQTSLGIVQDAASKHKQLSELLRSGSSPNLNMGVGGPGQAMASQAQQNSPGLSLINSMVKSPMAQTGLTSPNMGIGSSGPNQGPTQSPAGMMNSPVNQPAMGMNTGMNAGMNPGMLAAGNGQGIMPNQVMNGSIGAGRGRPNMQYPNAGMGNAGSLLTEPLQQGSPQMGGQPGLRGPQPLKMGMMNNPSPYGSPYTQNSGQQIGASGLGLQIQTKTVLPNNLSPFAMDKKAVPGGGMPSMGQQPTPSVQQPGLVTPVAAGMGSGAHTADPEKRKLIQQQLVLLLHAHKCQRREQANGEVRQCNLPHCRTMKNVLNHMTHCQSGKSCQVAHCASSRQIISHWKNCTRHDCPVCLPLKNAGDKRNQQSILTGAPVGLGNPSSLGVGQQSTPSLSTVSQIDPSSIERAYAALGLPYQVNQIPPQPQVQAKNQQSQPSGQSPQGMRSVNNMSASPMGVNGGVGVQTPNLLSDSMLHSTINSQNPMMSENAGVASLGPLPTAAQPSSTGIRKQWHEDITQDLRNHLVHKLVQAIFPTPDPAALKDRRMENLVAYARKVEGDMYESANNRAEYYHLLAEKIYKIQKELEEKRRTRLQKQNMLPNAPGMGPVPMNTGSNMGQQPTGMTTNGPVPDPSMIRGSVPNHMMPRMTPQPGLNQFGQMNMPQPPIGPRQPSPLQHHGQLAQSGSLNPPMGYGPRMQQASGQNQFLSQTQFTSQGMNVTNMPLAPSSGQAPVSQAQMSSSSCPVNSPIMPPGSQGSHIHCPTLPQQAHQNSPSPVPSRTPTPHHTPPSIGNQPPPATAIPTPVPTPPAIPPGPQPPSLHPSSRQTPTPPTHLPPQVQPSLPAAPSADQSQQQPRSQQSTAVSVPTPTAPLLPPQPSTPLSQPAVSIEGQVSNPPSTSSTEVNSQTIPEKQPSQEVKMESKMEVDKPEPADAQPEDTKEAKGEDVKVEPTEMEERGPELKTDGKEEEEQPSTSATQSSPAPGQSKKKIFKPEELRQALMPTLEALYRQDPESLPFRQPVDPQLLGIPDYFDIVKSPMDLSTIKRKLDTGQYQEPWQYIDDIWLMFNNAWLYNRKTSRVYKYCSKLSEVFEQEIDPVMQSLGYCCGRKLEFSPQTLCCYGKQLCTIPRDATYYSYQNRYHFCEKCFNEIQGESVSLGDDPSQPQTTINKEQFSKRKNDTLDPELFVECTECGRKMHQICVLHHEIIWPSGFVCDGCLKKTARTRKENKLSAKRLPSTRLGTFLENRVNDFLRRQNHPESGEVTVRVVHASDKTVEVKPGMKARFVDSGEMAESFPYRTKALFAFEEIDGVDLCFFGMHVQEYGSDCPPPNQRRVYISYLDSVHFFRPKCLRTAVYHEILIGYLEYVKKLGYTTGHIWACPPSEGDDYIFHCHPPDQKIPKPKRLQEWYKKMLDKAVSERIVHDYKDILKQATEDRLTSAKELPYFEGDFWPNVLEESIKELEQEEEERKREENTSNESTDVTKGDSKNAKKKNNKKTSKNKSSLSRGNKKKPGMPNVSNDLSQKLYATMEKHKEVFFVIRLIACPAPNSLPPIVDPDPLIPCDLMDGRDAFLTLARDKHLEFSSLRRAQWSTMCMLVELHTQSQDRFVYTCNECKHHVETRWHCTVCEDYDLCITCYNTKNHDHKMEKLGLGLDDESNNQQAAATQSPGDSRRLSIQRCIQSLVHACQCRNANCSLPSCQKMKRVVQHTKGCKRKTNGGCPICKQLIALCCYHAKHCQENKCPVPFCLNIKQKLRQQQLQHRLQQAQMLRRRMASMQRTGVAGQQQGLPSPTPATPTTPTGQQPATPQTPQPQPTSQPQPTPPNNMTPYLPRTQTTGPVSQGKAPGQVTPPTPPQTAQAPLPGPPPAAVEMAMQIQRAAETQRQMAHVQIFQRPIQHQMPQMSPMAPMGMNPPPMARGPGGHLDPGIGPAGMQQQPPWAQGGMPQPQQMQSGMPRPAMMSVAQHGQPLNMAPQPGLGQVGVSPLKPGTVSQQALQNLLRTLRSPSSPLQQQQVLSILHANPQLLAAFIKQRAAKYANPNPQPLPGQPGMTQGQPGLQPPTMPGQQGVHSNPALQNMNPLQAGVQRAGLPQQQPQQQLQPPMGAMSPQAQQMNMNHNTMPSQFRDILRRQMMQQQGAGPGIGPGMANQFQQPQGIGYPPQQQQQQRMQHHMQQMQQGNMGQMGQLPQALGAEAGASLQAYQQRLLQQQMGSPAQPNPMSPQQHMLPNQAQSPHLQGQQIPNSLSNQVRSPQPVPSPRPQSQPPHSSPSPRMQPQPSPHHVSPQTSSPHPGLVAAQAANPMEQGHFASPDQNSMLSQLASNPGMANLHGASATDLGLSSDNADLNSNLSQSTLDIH
UniProt P45481: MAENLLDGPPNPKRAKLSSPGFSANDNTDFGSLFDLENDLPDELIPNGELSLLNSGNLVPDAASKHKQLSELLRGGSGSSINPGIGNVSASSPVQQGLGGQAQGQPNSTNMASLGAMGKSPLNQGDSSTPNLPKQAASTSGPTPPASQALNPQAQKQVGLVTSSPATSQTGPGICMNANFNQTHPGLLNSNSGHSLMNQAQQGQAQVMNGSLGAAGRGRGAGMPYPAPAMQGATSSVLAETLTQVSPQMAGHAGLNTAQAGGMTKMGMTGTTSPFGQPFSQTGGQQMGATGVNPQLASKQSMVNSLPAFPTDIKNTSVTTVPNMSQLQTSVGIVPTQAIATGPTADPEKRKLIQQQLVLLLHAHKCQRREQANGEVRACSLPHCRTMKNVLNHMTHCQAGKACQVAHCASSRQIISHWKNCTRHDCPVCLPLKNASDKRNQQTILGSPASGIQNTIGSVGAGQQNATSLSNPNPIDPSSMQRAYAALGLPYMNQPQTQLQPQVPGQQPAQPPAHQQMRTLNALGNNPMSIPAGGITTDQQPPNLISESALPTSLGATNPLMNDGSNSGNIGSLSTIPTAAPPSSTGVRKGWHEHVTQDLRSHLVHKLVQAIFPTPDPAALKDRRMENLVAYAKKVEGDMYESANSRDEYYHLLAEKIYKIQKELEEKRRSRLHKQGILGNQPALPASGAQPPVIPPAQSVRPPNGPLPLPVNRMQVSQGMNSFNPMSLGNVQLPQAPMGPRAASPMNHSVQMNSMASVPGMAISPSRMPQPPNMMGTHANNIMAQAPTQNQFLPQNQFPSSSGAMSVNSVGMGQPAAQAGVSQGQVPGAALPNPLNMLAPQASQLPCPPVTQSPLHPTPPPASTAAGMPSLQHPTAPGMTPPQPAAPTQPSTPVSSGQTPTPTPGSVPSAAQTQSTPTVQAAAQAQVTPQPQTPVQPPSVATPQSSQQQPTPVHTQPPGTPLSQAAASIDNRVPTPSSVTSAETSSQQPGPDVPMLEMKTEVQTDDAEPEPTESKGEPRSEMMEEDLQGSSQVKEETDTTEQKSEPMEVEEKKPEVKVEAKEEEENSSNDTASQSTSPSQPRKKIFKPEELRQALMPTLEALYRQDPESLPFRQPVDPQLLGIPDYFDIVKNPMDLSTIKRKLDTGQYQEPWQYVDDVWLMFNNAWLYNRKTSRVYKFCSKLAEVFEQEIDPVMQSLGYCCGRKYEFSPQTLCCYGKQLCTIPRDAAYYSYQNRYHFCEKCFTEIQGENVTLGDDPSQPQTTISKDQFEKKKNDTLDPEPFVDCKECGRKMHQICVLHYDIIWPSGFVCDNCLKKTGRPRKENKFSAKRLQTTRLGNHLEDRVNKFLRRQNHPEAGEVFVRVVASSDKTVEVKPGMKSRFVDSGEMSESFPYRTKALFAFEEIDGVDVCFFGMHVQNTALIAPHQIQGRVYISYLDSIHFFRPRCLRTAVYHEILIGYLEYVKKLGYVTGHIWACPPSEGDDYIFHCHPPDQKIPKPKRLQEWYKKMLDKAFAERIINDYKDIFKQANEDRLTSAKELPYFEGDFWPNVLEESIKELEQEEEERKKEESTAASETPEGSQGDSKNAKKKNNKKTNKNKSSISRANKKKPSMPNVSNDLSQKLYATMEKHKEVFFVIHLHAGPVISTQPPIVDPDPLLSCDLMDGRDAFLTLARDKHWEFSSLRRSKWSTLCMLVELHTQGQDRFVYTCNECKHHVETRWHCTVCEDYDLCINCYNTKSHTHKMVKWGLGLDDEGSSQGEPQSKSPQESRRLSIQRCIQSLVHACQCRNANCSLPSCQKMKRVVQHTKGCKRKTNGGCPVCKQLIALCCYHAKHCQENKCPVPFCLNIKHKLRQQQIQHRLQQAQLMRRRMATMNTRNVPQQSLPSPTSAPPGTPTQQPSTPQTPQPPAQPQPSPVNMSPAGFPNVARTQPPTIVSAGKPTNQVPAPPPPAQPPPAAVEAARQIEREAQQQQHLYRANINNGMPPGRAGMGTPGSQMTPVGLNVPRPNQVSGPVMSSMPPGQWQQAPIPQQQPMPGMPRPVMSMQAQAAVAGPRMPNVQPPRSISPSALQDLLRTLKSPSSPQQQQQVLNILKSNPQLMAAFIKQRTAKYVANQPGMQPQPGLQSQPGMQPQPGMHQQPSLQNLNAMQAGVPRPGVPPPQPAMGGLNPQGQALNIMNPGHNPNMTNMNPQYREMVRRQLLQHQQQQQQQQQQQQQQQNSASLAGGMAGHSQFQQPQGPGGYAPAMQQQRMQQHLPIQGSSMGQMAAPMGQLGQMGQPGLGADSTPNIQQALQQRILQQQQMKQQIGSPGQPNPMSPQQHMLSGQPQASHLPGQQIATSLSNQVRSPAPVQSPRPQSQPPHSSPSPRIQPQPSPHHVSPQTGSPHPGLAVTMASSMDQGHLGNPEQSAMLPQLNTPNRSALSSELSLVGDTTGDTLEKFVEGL
UniProt O88569: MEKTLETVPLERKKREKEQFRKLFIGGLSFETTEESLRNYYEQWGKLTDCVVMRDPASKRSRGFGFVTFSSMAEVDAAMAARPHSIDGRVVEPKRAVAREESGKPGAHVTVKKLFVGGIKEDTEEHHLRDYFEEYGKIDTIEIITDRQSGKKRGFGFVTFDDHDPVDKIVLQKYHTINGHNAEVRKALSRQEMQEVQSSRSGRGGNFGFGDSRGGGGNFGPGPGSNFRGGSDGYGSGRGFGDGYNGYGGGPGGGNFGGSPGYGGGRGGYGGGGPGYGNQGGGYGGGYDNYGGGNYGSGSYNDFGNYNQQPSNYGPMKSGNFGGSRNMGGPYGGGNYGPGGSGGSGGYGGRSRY
UniProt Q61466: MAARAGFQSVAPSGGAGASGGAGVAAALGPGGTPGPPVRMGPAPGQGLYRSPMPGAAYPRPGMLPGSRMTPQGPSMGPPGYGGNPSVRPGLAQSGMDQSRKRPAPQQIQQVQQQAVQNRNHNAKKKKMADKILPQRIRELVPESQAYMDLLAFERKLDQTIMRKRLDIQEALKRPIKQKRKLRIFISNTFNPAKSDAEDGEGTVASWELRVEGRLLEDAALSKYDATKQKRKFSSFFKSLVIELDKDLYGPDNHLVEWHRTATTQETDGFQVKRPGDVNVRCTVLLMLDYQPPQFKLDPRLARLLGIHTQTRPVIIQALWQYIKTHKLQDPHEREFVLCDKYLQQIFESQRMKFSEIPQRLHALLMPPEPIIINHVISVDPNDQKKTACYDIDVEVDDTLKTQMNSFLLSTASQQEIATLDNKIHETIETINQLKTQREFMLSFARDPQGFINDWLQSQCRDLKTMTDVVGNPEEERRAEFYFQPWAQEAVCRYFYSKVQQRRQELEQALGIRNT
UniProt O54941: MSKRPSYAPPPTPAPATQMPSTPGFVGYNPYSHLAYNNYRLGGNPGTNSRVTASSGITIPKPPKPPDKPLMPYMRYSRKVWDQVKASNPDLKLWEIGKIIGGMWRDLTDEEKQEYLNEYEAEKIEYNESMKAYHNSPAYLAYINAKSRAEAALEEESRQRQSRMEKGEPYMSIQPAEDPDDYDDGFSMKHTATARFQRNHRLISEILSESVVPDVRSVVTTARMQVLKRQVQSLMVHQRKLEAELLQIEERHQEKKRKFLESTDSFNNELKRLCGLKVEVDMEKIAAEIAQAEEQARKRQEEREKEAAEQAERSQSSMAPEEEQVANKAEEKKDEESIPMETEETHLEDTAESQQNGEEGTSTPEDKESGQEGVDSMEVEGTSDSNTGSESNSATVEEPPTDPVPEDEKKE

In paper PMC6051640:

Columns and labels:
[1] = target: E1A-binding protein, 300 kDa (p300), wild type (mouse (endogenous in P19)) (UniProt B2RWS6); assay: affinity purification with mass spectrometry; P19 cells, the sentence does not tell whether wild type or edited; CBP or p300 immunoprecipitates from nuclear protein, beads suspended in 5% sodium deoxycholate, trypsin digest, LC-MS, 2DICAL
[2] = target: cAMP response element binding protein (CREB)-binding protein (CBP) (mouse (endogenous in P19)) (UniProt P45481); assay: as above
[3] = target: cAMP response element binding protein (CREB)-binding protein (CBP) (mouse (endogenous in P19)) (UniProt P45481); assay: affinity purification with mass spectrometry; p300-edited P19 cells; CBP or p300 immunoprecipitates from nuclear protein, beads suspended in 5% sodium deoxycholate, trypsin digest, LC-MS, 2DICAL
[4] = target: E1A-binding protein, 300 kDa (p300), wild type (mouse (endogenous in P19)) (UniProt B2RWS6); assay: affinity purification with mass spectrometry; wild type (parental) P19 cells; CBP or p300 immunoprecipitates from nuclear protein, beads suspended in 5% sodium deoxycholate, trypsin digest, LC-MS, 2DICAL
[5] = target: cAMP response element binding protein (CREB)-binding protein (CBP) (mouse (endogenous in P19)) (UniProt P45481); assay: as above

Molecule: ARID1A/BAF250a (from UniProt A2BH40 1-2283)
- binding [1]: binds
- binding [2]: binds

Molecule: heterogeneous nuclear ribonucleoprotein A2/B1 (ROA2) (from UniProt O88569 1-353)
- binding [3]: binds
- binding [4]: binds
- binding [5]: no binding (only in parental (wild type) P19 cells)

Molecule: ARID2/BAF200 (from UniProt E9Q7E2 1-1828)
- binding [1]: binds
- binding [2]: binds

Molecule: SMARCA4/Brg1 (from UniProt Q3TKT4 1-1613)
- binding [1]: binds
- binding [2]: binds

Molecule: SMARCD1 (BAF60A) (from UniProt Q61466 1-515)
- binding [3]: no binding (only in p300-edited P19 cells)
- binding [4]: binds
- binding [5]: binds

Molecule: SMARCC1/BAF155 (from UniProt P97496 1-1104)
- binding [1]: binds
- binding [2]: binds

Molecule: SMARCE1 (BAF57) (from UniProt O54941 1-411)
- binding [4]: binds

B1: Brd7 (protein, UniProt O88665 1-651)
chain: MGKKHKKHKSDRHFYEEYVEKPLKLVLKVGGSEVTELSTGSSGHDSSLFEDRSDHDKHKDRKRKKRKKGEKQAPGEEKGRKRRRVKEDKKKRDRDRAENEVDRDLQCHVPIRLDLPPEKPLTSSLAKQEEVEQTPLQEALNQLMRQLQRKDPSAFFSFPVTDFIAPGYSMIIKHPMDFSTMKEKIKNNDYQSIEELKDNFKLMCTNAMIYNKPETIYYKAAKKLLHSGMKILSQERIQSLKQSIDFMSDLQKTRKQKERTDACQSGEDSGCWQREREDSGDAETQAFRSPAKDNKRKDKDVLEDKWRSSNSEREHEQIERVVQESGGKLTRRLANSQCEFERRKPDGTTTLGLLHPVDPIVGEPGYCPVRLGMTTGRLQSGVNTLQGFKEDKRNRVTPVLYLNYGPYSSYAPHYDSTFANISKDDSDLIYSTYGEDSDLPNNFSISEFLATCQDYPYVMADSLLDVLTKGGHSRSLQDLDMSSPEDEGQTRALDTAKEAEITQIEPTGRLESSSQDRLTALQAVTTFGAPAEVFDSEEAEVFQRKLDETTRLLRELQEAQNERLSTRPPPNMICLLGPSYREMYLAEQVTNNLKELTQQVTPGDVVSIHGVRKAMGISVPSPIVGNSFVDLTGECEEPKETSTAECGPDAS
- binding [1]: binds
- binding [2]: binds

No constants are given. Whether binding was seen depends on the method and setting. In cells and extracts the contact can be indirect. Here binding means that the protein was enriched with, or labelled near, the bait; the list need not be complete. For some assays here: A no says only that the protein was not detected with the bait.
